Measured values reported in patent US20100119576A1, “USE OF ONE OR MORE OF THE ELEMENTS FROM THE GROUP YTTRIUM, NEODYMIUM AND ZIRCONIUM, AND PHARMACEUTICAL COMPOSITIONS WHICH CONTAIN THOSE ELEMENTS” (BIOTRONIK VI PATENT AG, priority 2002, published 2010).
Some of these results come from one statement about several compounds together. At least one structure is not confirmed: it was looked up by name or label, or the drawing left a doubt.

How the values were obtained:
[1] = test system: human arterial smooth muscle cells (SMC); conditions: 3 days, 37° C.
[2] = test system: human arterial smooth muscle cells (SMC); conditions: 3 days, 37° C.; remark: listed apart in the source

For `[Cl][Nd]([Cl])[Cl]` [neodymium, Neodymium Chloride], the “levels of concentration resulting in a drop in vitality” value [1] was > 800 µM and the “levels of concentration at which proliferation was greatly / extensively inhibited” value [2] was > 800 µM.
